The target in this assay is Flag-TNFRSF10B (short isoform) (human) (UniProt O14763). The experiment in a line: co-IP; H1299 cells transfected with pcDNA3.1 or pcDNA3.1-Flag-TNFRSF10B (short isoform); lysis buffer 20 mM Tris-HCl pH 7.5, 150 mM NaCl, 0.5% Triton; IP with Flag antibody and protein A beads at 4 °C; western blot with Flag and YIPF2 antibodies. (In general: In western blotting, separated proteins are transferred to a membrane and probed.)

Amino acid sequences for entries named in this document (tags omitted). A change or cut given only in a name is not applied to a line headed by its entry. Chains listed by the source or under a name are the forms on record and can include a tag or linker.
Flag-TNFRSF10B (short isoform) (O14763, form named): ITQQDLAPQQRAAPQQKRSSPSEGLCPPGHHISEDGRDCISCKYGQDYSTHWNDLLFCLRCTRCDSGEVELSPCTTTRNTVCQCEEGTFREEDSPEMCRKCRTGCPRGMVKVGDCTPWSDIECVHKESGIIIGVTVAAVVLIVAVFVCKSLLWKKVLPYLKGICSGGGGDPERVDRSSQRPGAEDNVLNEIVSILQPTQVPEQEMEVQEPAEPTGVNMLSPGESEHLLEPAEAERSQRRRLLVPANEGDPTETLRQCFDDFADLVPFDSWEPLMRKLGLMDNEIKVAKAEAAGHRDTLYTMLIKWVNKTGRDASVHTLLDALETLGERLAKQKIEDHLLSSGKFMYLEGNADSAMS
UniProt Q9BWQ6: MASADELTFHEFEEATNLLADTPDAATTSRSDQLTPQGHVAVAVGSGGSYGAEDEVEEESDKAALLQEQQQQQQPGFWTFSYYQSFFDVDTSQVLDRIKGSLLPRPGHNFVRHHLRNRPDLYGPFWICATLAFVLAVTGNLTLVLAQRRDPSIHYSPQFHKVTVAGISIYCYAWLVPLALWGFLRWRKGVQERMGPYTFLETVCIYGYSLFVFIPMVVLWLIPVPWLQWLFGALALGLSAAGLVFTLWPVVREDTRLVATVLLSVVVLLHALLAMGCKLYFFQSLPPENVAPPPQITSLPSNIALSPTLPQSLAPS

These are yes or no findings as the source states them, for the method shown. In cells and extracts the contact can be indirect. Some entries that bind do so weakly or less than the wild type.

For “endogenous YIPF2 (H1299 cells) (from UniProt Q9BWQ6 1-316)”, the binding entry is “binds”.

The values above are taken from publication PMC7165181.
